Data: patent US20140039008A1, “METHODS FOR THE ADMINISTRATION OF ILOPERIDONE” (VANDA PHARMACEUTICALS, INC., priority 2004, published 2014)
Some results were stated once for a whole list of compounds, not compound by compound. For at least one compound, name, drawing or mass did not settle the structure.

Assay: interaction studies: addition of CYP3A4 inhibitor ketoconazole, concentrations

| Structure (SMILES) | increase in the concentrations |
| --- | --- |
| COc1cc(C(C)O)ccc1OCCCN1CCC(c2noc3cc(F)ccc23)CC1 (centres unmarked) [P88] | 38-58% |
| COc1cc(C(=O)O)ccc1OCCCN1CCC(c2noc3cc(F)ccc23)CC1 [P95] | 38-58% |
